# Source: paper PMC11140114
# Chains of the proteins cited; added tags and fusions are not shown.
# UniProt O00429: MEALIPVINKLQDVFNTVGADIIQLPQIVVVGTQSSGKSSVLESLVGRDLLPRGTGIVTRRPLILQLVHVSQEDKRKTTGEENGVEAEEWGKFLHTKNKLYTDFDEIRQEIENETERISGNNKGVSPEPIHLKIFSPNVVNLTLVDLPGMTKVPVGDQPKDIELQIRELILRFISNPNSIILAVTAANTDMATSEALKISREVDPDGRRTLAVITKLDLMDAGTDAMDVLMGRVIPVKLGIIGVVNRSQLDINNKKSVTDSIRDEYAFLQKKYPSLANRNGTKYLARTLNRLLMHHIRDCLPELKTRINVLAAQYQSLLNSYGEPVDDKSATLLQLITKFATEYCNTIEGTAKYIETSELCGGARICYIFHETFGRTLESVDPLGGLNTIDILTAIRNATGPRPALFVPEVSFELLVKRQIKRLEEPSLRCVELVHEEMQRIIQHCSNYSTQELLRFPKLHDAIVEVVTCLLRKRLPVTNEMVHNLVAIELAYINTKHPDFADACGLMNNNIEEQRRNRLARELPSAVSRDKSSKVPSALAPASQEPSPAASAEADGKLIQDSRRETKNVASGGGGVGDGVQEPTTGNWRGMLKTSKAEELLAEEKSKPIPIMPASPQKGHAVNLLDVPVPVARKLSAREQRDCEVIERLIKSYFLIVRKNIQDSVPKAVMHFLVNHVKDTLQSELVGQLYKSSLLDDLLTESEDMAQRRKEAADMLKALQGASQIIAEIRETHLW
# These are yes or no findings as the source states them, for the method shown. In cells and extracts the contact can be indirect. A yes stands for co-enrichment or nearness to the bait. Other partners may have been found.
# Target: endogenous Drp1 (human (endogenous in HEK293, HeLa, U2OS)) (UniProt O00429)
# Test: affinity purification with mass spectrometry; proteins enriched together with endogenous Drp1 on the D7 and D63 nanotraps against GFP-Trap, soluble protein fraction of HEK293 cells; multi-volcano analysis, class A FDR 0.01, class B FDR 0.05
row,binding,Binder
1,binds,"peroxisomal multifunctional enzyme type 2 (enzyme, UniProt P51659 1-736) MGSPLRFDGRVVLVTGAGAGLGRAYALAFAERGALVVVNDLGGDFKGVGKGSLAADKVVEEIRRRGGKAVANYDSVEEGEKVVKTALDAFGRIDVVVNNAGILRDRSFARISDEDWDIIHRVHLRGSFQVTRAAWEHMKKQKYGRIIMTSSASGIYGNFGQANYSAAKLGLLGLANSLAIEGRKSNIHCNTIAPNAGSRMTQTVMPEDLVEALKPEYVAPLVLWLCHESCEENGGLFEVGAGWIGKLRWERTLGAIVRQKNHPMTPEAVKANWKKICDFENASKPQSIQESTGSIIEVLSKIDSEGGVSANHTSRATSTATSGFAGAIGQKLPPFSYAYTELEAIMYALGVGASIKDPKDLKFIYEGSSDFSCLPTFGVIIGQKSMMGGGLAEIPGLSINFAKVLHGEQYLELYKPLPRAGKLKCEAVVADVLDKGSGVVIIMDVYSYSEKELICHNQFSLFLVGSGGFGGKRTSDKVKVAVAIPNRPPDAVLTDTTSLNQAALYRLSGDWNPLHIDPNFASLAGFDKPILHGLCTFGFSARRVLQQFADNDVSRFKAIKARFAKPVYPGQTLQTEMWKEGNRIHFQTKVQETGDIVISNAYVDLAPTSGTSAKTPSEGGKLQSTFVFEEIGRRLKDIGPEVVKKVNAVFEWHITKGGNIGAKWTIDLKSGSGKVYQGPAKGAADTTIILSDEDFMEVVLGKLDPQKAFFSGRLKARGNIMLSQKLQMILKDYAKL"
2,binds,"hydroxysteroid dehydrogenase-like protein 2 (protein, UniProt Q6YN16 1-418) MLPNTGRLAGCTVFITGASRGIGKAIALKAAKDGANIVIAAKTAQPHPKLLGTIYTAAEEIEAVGGKALPCIVDVRDEQQISAAVEKAIKKFGGIDILVNNASAISLTNTLDTPTKRLDLMMNVNTRGTYLASKACIPYLKKSKVAHILNISPPLNLNPVWFKQHCAYTIAKYGMSMYVLGMAEEFKGEIAVNALWPKTAIHTAAMDMLGGPGIESQCRKVDIIADAAYSIFQKPKSFTGNFVIDENILKEEGIENFDVYAIKPGHPLQPDFFLDEYPEAVSKKVESTGAVPEFKEEKLQLQPKPRSGAVEETFRIVKDSLSDDVVKATQAIYLFELSGEDGGTWFLDLKSKGGNVGYGEPSDQADVVMSMTTDDFVKMFSGKLKPTMAFMSGKLKIKGNMALAIKLEKLMNQMNARL"
3,binds,"CDGSH iron-sulfur domain-containing protein 1 (protein, UniProt Q9NZ45 1-108) MSLTSSSSVRVEWIAAVTIAAGTAAIGYLAYKRFYVKDHRNKAMINLHIQKDNPKIVHAFDMEDLGDKAVYCRCWRSKKFPFCDGAHTKHNEETGDNVGPLIIKKKET"
